PubChem BioAssay AID743454, Peter MacCallum Cancer Centre, 2014

Test: 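Genes whose loss kills vorinostat-resistant colon cancer cells under vorinostat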 (primary screen)
Cell system: human HCT116-VR colon cancer cells, selected for vorinostat resistance
Knock-down reagent: siRNA pool against human genes, 40 nM siRNA pool
Duration: vorinostat for 24 h, read-out about 72 h after transfection
Conditions: vorinostat at 2.5 µM final
Detection: 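Two measures, CellTiter-Fluor viability and luminescent caspase 3/7 activity, each as fold change against same-plate mock wells, mean of duplicates, then screen-wide robust z-score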
Reading the numbers: viability robust z-score: higher = more viable cells than screen typical; caspase robust z-score: higher = more caspase 3/7 activity than screen typical
Rule for the call: 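Hits are knock-downs in viability class RV1/RV2 or caspase class CA1/CA2, excluding ones that killed cells in the no-drug cell-count arm; hits then retested with single siRNAs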
The deposit covers about 18,000 reagents; shown is a part drawn at random. 450 of them (2.5%) count as active. 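Single biological run; no consistent viability z cut-off exists, so the class columns, not z-scores, define the calls.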 Entries without a mark were called inactive.

For PPP1CB the deposit lists viability hit class no change; caspase hit class no change; viability robust z-score -0.67; caspase robust z-score 2.46.
Depletion of TRAF3IP2 gave: viability hit class no change; caspase hit class no change; viability robust z-score 1.45; caspase robust z-score -0.5.
Depletion of GALK1 resulted in: viability hit class RV2 (reduced viability) (active); caspase hit class no change; viability robust z-score -3.66; caspase robust z-score 4.09.
NR3C1 gave viability hit class no change; caspase hit class no change; viability robust z-score 0.21; caspase robust z-score 0.06.
DNAJC24 scored viability hit class no change; caspase hit class no change; viability robust z-score -0.36; caspase robust z-score -0.17.
Knock-down of CTPS2 came out at: viability hit class no change; caspase hit class no change; viability robust z-score -0.1; caspase robust z-score 0.7.
After knock-down of BHLHE40 the results were viability hit class no change; caspase hit class no change; viability robust z-score 0.25; caspase robust z-score 0.02.
CC2D2A showed viability hit class no change; caspase hit class no change; viability robust z-score 0.42; caspase robust z-score 3.49.
VPS4A gave viability hit class no change (active); caspase hit class CA2 (caspase activation); viability robust z-score -0.56; caspase robust z-score 5.3.
Against CCL15, the values are viability hit class no change; caspase hit class no change; viability robust z-score -0.04; caspase robust z-score 0.05.
With knock-down of CFLAR the results were viability hit class no change; caspase hit class no change; viability robust z-score -1.29; caspase robust z-score -0.41.
Knock-down of UBR7 came out at: viability hit class no change; caspase hit class no change; viability robust z-score -0.48; caspase robust z-score 0.31.
With knock-down of FMOD the results were viability hit class no change; caspase hit class no change; viability robust z-score 0.24; caspase robust z-score 0.53.
With knock-down of TRAPPC6B, the record shows viability hit class no change; caspase hit class no change; viability robust z-score 0.29; caspase robust z-score -0.23.
For MEF2D, the entry reads viability hit class no change; caspase hit class no change; viability robust z-score 0.36; caspase robust z-score 2.58.
Against KLHDC9, the entry reads viability hit class no change; caspase hit class no change; viability robust z-score 2.34; caspase robust z-score 0.54.
After knock-down of DIS3L, the screen gave viability hit class no change; caspase hit class no change; viability robust z-score 0.76; caspase robust z-score 0.14.
For TUBB7P the deposit lists viability hit class no change; caspase hit class no change; viability robust z-score -3.5; caspase robust z-score 1.57.
Silencing of RIOK3 resulted in: viability hit class no change; caspase hit class no change; viability robust z-score 0.39; caspase robust z-score -0.94.
NMUR1 scored viability hit class no change; caspase hit class no change; viability robust z-score 0.18; caspase robust z-score 0.82.
After knock-down of L2HGDH, the screen gave viability hit class no change; caspase hit class no change; viability robust z-score -1.92; caspase robust z-score 0.73.

Records listed above called active (2):
GALK1 — viability hit class = RV2 (reduced viability) (active); caspase hit class = no change; viability robust z-score = -3.66; caspase robust z-score = 4.09
VPS4A — viability hit class = no change (active); caspase hit class = CA2 (caspase activation); viability robust z-score = -0.56; caspase robust z-score = 5.3
